Assay results taken from paper PMC11743138, “Structural basis for the interaction between the Drosophila RTK Sevenless (dROS1) and the GPCR BOSS” (Nature Communications, 2025).
These are yes or no findings as the source states them, for the method shown. Where a sequence is shown, tags or fusion partners need not be part of it.

By UniProt entry, the sequences of proteins in these tests, tags left out. Where a name states a change or a piece, a line headed by the entry shows the natural chain unless it says otherwise. Residues count along the entry.
UniProt P13368, residues 126-2113: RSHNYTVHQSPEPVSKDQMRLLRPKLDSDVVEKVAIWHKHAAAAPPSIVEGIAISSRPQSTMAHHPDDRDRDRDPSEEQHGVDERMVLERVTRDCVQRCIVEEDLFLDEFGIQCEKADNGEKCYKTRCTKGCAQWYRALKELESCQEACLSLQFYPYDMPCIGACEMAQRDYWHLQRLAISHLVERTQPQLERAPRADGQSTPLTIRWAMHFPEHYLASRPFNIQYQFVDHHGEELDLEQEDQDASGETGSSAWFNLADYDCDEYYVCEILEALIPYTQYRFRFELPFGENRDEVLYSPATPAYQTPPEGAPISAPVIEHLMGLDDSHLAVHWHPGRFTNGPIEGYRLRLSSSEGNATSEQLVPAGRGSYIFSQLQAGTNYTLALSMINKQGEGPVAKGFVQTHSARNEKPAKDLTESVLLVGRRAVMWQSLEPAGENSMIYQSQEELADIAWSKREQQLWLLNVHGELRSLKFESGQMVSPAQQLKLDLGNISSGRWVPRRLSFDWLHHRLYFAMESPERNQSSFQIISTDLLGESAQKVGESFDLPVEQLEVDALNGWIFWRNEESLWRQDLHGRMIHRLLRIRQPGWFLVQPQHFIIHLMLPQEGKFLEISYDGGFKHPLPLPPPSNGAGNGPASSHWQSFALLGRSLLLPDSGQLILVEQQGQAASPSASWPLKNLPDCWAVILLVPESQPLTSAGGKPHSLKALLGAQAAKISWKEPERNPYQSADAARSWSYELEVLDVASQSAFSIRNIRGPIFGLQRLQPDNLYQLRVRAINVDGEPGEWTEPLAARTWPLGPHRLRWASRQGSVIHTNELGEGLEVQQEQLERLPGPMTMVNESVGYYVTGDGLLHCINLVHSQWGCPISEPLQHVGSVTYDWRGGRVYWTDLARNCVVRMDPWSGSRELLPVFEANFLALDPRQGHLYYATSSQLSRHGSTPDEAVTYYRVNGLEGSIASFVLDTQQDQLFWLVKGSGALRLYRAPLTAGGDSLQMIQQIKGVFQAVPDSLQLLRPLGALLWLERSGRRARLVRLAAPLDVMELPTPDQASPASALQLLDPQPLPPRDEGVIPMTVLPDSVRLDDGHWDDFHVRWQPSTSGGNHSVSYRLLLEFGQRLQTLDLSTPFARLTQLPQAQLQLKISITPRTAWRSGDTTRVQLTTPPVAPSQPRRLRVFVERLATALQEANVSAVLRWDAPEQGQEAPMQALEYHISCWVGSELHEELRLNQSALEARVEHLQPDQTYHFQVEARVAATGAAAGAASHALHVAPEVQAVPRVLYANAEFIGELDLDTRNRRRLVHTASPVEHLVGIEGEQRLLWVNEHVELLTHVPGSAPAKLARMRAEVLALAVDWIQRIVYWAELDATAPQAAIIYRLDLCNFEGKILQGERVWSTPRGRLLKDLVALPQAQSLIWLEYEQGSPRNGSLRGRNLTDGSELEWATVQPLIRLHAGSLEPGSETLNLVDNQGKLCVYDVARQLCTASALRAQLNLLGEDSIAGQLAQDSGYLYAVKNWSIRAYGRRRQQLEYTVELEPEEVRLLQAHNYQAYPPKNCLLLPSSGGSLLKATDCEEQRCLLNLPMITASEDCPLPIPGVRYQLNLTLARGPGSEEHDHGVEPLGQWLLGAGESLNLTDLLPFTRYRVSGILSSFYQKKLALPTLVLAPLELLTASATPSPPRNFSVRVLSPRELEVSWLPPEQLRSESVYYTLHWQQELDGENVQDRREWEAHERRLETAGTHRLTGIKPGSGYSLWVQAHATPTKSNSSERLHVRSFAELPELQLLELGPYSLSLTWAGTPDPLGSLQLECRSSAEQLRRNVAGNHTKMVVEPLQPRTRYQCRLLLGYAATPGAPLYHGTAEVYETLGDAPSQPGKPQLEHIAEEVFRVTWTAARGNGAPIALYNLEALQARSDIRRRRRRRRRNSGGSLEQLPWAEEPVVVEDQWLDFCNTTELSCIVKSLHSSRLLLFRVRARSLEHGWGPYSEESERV

Target: dROS1 (Sevenless) full extracellular region, construct 1-9 (D. melanogaster) (UniProt P13368)
Experiment: SPR; BIAcore T200; dROS1 constructs covalently coupled (NHS/EDC) to a CM5 chip, BOSS ECR proteins flowed over at 10 µL/min for 180 s; 20 mM HEPES pH 7.5, 100 mM NaCl; plateau RU against BOSS concentration fitted to a single-site specific binding model; both purified

B1: BOSSDEQ extracellular region (L489 and L491 of LEL changed to DEQ), His tag cleaved (domain or fragment, UniProt P22815 102-510)
chain: GTTASLVPEICLNGLQLTVNSADEGTVIRKQEEFVKILEGDVVLSVLTKDPDSALFVINRVNQANLIMADFEIGIRAISIDNASLAENLLIQEVQFLQQCTTYSMGIFVDWELYKQLESVIKDLEYNIWPIPGTRAHLFPKVAHLLHQMPWGEKIASVEIATETLEMYNEFMEAARQEHMCLMHFKSDDNVYIMFGNKLASHFKENGTLFSVPTDRTDDEFLADLPNRAFVLMENEIDLSTAVELDATPTALDEILIGKSVLPSRVLSFAGSIIDLMNWLRGSLSKHCKRGEEHDLYVLESCFNFLNFIEDWRTSEYRQAHDTAEILSLLLMRKLGTAMNFQMYQKKVLTLDKITGESRTELREIASQNFVTNVTTYYHYNRDNHTSDEQKTKFGQVFNCQYSAGDNRR
Q: Which binding does the source give for B1 here?
A: The binding was “no binding”.
